# Measurements published in article PMC7819943, “Rice protein-binding microarrays: a tool to detect cis-acting elements near promoter regions in rice”.
# Some of the results follow.
# Biological target: T1, OsSMF1 (Oryza sativa, UniProt Q6ZLB0 1-436)
# T1 sequence: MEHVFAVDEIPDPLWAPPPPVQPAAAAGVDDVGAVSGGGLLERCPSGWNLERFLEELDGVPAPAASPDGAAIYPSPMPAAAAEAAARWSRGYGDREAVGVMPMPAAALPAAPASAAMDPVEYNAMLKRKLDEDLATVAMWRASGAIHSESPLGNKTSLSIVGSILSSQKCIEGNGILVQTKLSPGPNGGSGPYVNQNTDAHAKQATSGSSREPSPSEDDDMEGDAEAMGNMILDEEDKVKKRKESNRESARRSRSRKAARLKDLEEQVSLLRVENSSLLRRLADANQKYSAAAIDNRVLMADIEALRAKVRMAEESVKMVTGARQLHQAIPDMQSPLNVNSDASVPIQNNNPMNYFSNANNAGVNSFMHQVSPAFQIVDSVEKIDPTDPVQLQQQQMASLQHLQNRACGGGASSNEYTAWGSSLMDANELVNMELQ
# Assay: protein-binding microarray (RPBM); PBS, 2% BSA, 51.3 ng/ul salmon testes DNA, 50 uM zinc acetate, 200 nM TF, 25 C, 1 h; high values mean tight binding
# Details: protein: recombinant; tags: N-terminal polyhistidine and DsRed monomer fusion (pET32a); chain copies: 2; label: CyDye5-dUTP incorporated in the synthesized complementary strand; 3' TTTTT single-stranded linker to array surface; dsDNA, one strand shown
# In short: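 In PBS with 2% BSA, salmon testes DNA and 50 µM zinc acetate, 200 nM protein was incubated on a custom Agilent array at 25 °C for 1 h and then washed off. The array had been made double-stranded by primer extension with Cy5-dUTP and blocked with 2% BSA. The proteins were transcription factors fused N-terminally to polyhistidine and DsRed, expressed in E. coli BL21-CodonPlus and purified on Ni–NTA. The binding signal is per-feature fluorescence intensity (arbitrary units) from an Axon 4000B scanner.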
row,Sequence,binding signal
1,TCTAGATGGAGCCTACCGATTTGCCCTTCATTTTGTAGGACGGAGTCACCTAGTGCAG,19100 fluorescence intensity (a.u.)
2,ACAAATGTTTACCGTAACACTATATTATCATATCATAAAGCGGAGTCACCTAGTGCAG,3160 fluorescence intensity (a.u.)
3,AAGAACTCATCTTACACCAATTAGAAAACACAAGAGAAACCGGAGTCACCTAGTGCAG,28900 fluorescence intensity (a.u.)
4,TGCCACTCGACGCCTCAATTCATCCCATGCCACCGTGGCTCGGAGTCACCTAGTGCAG,6960 fluorescence intensity (a.u.)
5,AACCTCAGAAATAAAGTGGAAACGTTTAATTTCCATGGTCCGGAGTCACCTAGTGCAG,18300 fluorescence intensity (a.u.)
6,TGGTTTGGTCTCCATCACAAGATCTGTGCATGATTAGCTGCGGAGTCACCTAGTGCAG,3290 fluorescence intensity (a.u.)
7,AAGGTTTTACTGACATGACGTTGACGTAGCGGTGTTGACCCGGAGTCACCTAGTGCAG,8530 fluorescence intensity (a.u.)
8,TCCCTGTAACCGTACTGCACATCACGTCATCCATTTAAGACGGAGTCACCTAGTGCAG,6780 fluorescence intensity (a.u.)
9,TAGAGGGGCATATTCGACCATTCGTCACGTCACCAGCTAGCGGAGTCACCTAGTGCAG,8470 fluorescence intensity (a.u.)
10,GGCGGGGTGGCTGTTGTCGACGTCGTGGTGGTCGGCGTCGCGGAGTCACCTAGTGCAG,3910 fluorescence intensity (a.u.)
11,ATGGCCCATTGGGCTTTCCACGGTGGTGGAATATTCCACCCGGAGTCACCTAGTGCAG,3780 fluorescence intensity (a.u.)
12,TTACTACACGGATCGCGGTCACGTCACGTGGTCCATAGTCCGGAGTCACCTAGTGCAG,6690 fluorescence intensity (a.u.)
13,TTGGATGCTTCTTGACTCACCCACACATTTGCATCGAACCCGGAGTCACCTAGTGCAG,3840 fluorescence intensity (a.u.)
14,ATGATAACTTTTATGGTTTTGGCCGTCTGGGGATCGGAATCGGAGTCACCTAGTGCAG,65500 fluorescence intensity (a.u.)
15,TTCTTTCTTTCTTTCTTCTTTCCCTGTTCTGTCTTTCTTCCGGAGTCACCTAGTGCAG,3480 fluorescence intensity (a.u.)
16,GGGATGTCACACCGTCGAAGGCGTCCAGCTGTCAACATATCGGAGTCACCTAGTGCAG,4720 fluorescence intensity (a.u.)
17,CAACTTTGCCGGCTGCCGATGACTGCCAACAACTCGGCCGCGGAGTCACCTAGTGCAG,4380 fluorescence intensity (a.u.)
18,TGGTGGTAGTGTGTGTTGGTGTCATAAATACTAAATAAGACGGAGTCACCTAGTGCAG,3460 fluorescence intensity (a.u.)
19,TGATGGGCTCGTGGACCGATGACTCAGACCACGGTCGCCCCGGAGTCACCTAGTGCAG,15400 fluorescence intensity (a.u.)
20,ACACACACAGTCACACGTACGCTAGCTCGATCGTTAGCTGCGGAGTCACCTAGTGCAG,6070 fluorescence intensity (a.u.)
21,CATCCCCTCCCGCCACGTCCGCAACCGCAGCCACCACCACCGGAGTCACCTAGTGCAG,10700 fluorescence intensity (a.u.)

# Look-ups from the entries so far.
# In binding signal, ACAAATGTTTACCGTAACACTATATTATCATATCATAAAGCGGAGTCACCTAGTGCAG is entered as 3160 fluorescence intensity (a.u.)
# In binding signal, ATGGCCCATTGGGCTTTCCACGGTGGTGGAATATTCCACCCGGAGTCACCTAGTGCAG is entered as 3780 fluorescence intensity (a.u.)

# Further results.

row,Sequence,binding signal
1,AATTGCTCCTCCGGTTCGTGACGTCGCCGATGGTGGACGCCGGAGTCACCTAGTGCAG,7280 fluorescence intensity (a.u.)
2,GGAAACGGTGAATAGTGCACTGCAAATCACGCCCAAATTGCGGAGTCACCTAGTGCAG,3160 fluorescence intensity (a.u.)
3,GGGGTGAGAAGAGTGGATGAAGATGGTTATCGGCGTGACTCGGAGTCACCTAGTGCAG,4800 fluorescence intensity (a.u.)
4,GCCTACAAATGATGTGTTCTGTGTACCGACGTTTTGCCAACGGAGTCACCTAGTGCAG,5200 fluorescence intensity (a.u.)
5,AAGTGATCTTATTCCTTCGGCGCTCGTTTGCAGGTTTCCTCGGAGTCACCTAGTGCAG,30600 fluorescence intensity (a.u.)
6,TTTATTGATAATAATAATCCAGATTTAATTTAATATTTTACGGAGTCACCTAGTGCAG,3760 fluorescence intensity (a.u.)
7,GCCGCCACCACTTAGCCTCGCCGCCAGCTGCCTCCCCGCTCGGAGTCACCTAGTGCAG,3170 fluorescence intensity (a.u.)
8,CTAGCCGTGTCCGCCTCTGCCACGCCACCACGACACGAGTCGGAGTCACCTAGTGCAG,9600 fluorescence intensity (a.u.)
9,CACACCCGCGCGTGCCACGCACGTGCGCCCGCGCCGCCGTCGGAGTCACCTAGTGCAG,8840 fluorescence intensity (a.u.)
10,AAGCGGGAGGTGGTGGAGGGGAGGTCGGCCGCCGTGCCCTCGGAGTCACCTAGTGCAG,3400 fluorescence intensity (a.u.)
11,CAACTCGTACAGTACGTAGTATTAGGCCTATCCACCTATGCGGAGTCACCTAGTGCAG,3350 fluorescence intensity (a.u.)
12,TTGGCAAGCGCGCGTCACCTACTCAGCAGCCTGAGCCGCCCGGAGTCACCTAGTGCAG,5370 fluorescence intensity (a.u.)
13,CATGCCCTCGTCTCTCTATCCTACGTGGCGGTGCTGATGGCGGAGTCACCTAGTGCAG,23100 fluorescence intensity (a.u.)
14,TGTGCTCGCCCGGGACGCGTGCCGCGGGACGTCACGCACGCGGAGTCACCTAGTGCAG,3240 fluorescence intensity (a.u.)
15,CGCCGCCCAGGGCGCAGCGGACGATGCTGGTGGTGGCGGGCGGAGTCACCTAGTGCAG,3650 fluorescence intensity (a.u.)
16,GAGCCACGGTGGAAGGGTATAATCGTAATTTCGCGTATGGCGGAGTCACCTAGTGCAG,3370 fluorescence intensity (a.u.)
17,GCACTTTCTCATAATGAACTATAGAGACGTGGAGTTGGGTCGGAGTCACCTAGTGCAG,3910 fluorescence intensity (a.u.)
18,GTATTCGAGCTATCCATATTCATTTTCATATCTGGTAAAACGGAGTCACCTAGTGCAG,19000 fluorescence intensity (a.u.)
19,TACAGCGTCCTGTTTGTTTGTGTTGGGGCGTGGCAGTGTCCGGAGTCACCTAGTGCAG,4690 fluorescence intensity (a.u.)
20,AACCGCTTTTGTCTTCTCCAGCTCAGCTCGTCTTCTCCGCCGGAGTCACCTAGTGCAG,7370 fluorescence intensity (a.u.)
21,CGAGTTTCTCACATCAGGTCTGTCATTTGCCGTGGTATGCCGGAGTCACCTAGTGCAG,3460 fluorescence intensity (a.u.)
